Test results from the supplement of paper PMC3334620.
In all, about 33,000 sequences were measured (“E-score (-0.5 to 0.5)”: median about -0.016, highest 2% from about 0.3 on). Some of the results follow.

Target: T1, Yer184c (UniProt P39961)
T1 sequence: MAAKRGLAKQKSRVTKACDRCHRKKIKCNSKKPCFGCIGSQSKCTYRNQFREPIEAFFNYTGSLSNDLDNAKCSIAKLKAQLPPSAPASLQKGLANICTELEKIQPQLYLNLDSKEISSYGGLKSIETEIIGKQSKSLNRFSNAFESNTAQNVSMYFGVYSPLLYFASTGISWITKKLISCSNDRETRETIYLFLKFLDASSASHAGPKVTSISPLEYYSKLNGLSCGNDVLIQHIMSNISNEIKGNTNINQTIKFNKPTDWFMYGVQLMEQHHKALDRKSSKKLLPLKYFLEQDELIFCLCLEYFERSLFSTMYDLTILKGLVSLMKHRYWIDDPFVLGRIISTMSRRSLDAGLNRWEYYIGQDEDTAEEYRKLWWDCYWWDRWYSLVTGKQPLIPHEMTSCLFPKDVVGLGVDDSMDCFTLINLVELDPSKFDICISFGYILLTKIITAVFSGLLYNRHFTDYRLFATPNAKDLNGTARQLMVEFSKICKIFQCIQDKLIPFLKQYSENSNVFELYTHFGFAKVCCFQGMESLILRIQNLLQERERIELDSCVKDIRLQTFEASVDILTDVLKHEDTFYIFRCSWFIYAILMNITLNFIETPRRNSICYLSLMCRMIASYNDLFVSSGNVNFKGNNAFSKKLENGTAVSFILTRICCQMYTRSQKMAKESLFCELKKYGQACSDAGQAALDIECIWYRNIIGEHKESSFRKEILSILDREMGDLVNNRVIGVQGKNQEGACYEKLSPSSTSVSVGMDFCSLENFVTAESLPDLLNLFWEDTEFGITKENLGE
Test: PBM E-score (8-mer binding enrichment) (E-score (-0.5 to 0.5)); higher = stronger / more preferred TF binding
Settings: protein concentration: 100 nM; construct: GST-full length
Summary of the method: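 GST-tagged yeast TFs (full-length or DNA-binding domain) were made by PURExpress in vitro transcription/translation and applied at about 100-200 nM to universal all-10-mer Agilent arrays. The arrays were made double-stranded by primer extension, on fresh or once-stripped slides. Bound protein was detected with fluorescent anti-GST, and scans were normalised with masliner. Each ungapped eight-base word, pooled with its reverse complement, received an E-score (modified Wilcoxon-Mann-Whitney statistic) from the Universal PBM Analysis Suite.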

In order of rising “PBM E-score” value:
1. GGTGGAGA  -0.397
2. GGAGCCCC  -0.315
3. CTCTGCCA  -0.311
4. AGCGCACT  -0.276
5. CTCTCCTC  -0.27
6. CTGGTGAC  -0.268
7. CCTTGTGC  -0.266
8. GCCAGCCA  -0.259
9. AGGGGTGG  -0.247
10. CGTAGGCA  -0.242
11. CCAGGAGG  -0.24
12. GACACCCC  -0.225
13. GCATACCC  -0.214
14. ACATGGTC  -0.213
15. CCCTGAAG  -0.213
16. ACGTGTGG  -0.211
17. CTGGTGGA  -0.206
18. CCAAGCTA  -0.204
19. ACCCTGCC  -0.2
20. AGGACAGC  -0.199
21. CAAACGTC  -0.193
22. GCAATCGC  -0.191
23. GCGTACTA  -0.191
24. CCTGAGCC  -0.183
25. AGGGACCA  -0.177
26. ACCTAAGA  -0.173
27. GCACGAGC  -0.168
28. GAGCACCA  -0.167
29. GACGCCAA  -0.164
30. CAATGGAG  -0.164
31. CCGCCAAG  -0.154
32. CGCCTGGC  -0.154
33. CAGGCCAG  -0.154
34. CGGTGGAC  -0.148
35. GATCGATC  -0.147
36. CCTCCTCC  -0.146
37. CCCTGGGA  -0.144
38. ACACGTCT  -0.143
39. ACAAGACG  -0.143
40. CTCCTGCC  -0.137
41. CACACGTG  -0.136
42. GGGCAAAC  -0.132
43. TCCCCCGA  -0.132
44. ATCTGATA  -0.13
45. CAGATTGA  -0.128
46. AGCCTCGA  -0.125
47. GGCTCGCA  -0.123
48. AACGACAG  -0.12
49. ATCTAGTG  -0.115
50. ACTGTTAG  -0.115
51. ACCAAGCC  -0.113
52. ATACCATG  -0.113
53. CCACAATA  -0.112
54. AAGACGAT  -0.11
55. GCAAGTCC  -0.11
56. CGGGGTTC  -0.103
57. GACATGGA  -0.0994
58. AAGGCTAC  -0.0953
59. CGTAGACA  -0.0945
60. AGCAGCCA  -0.0945
61. TGCCCCAA  -0.0927
62. AAACCGCT  -0.0917
63. GGGGGAAA  -0.0917
64. CCTAACTC  -0.0914
65. CGTTCTAC  -0.083
66. GATGTGAC  -0.0811
67. CACTAACC  -0.081
68. ACCATCGG  -0.0785
69. CTTAGTGA  -0.078
70. AAATCGAA  -0.0711
71. AAAGGGAA  -0.0699
72. AGTAAGGG  -0.0689
73. CCGCTACA  -0.0684
74. AGCGCGCC  -0.0668
75. ACCGCGTA  -0.0653
76. CAGACAAG  -0.0643
77. AATCTAAG  -0.064
78. AGTCACCG  -0.0615
79. CTACACCA  -0.0614
80. AGTCTACC  -0.0597
81. ATGCGAAG  -0.0567
82. CAAGACTG  -0.055
83. ATTGGAAG  -0.0549
84. ACAAGTGA  -0.0538
85. CATGTCAC  -0.0529
86. CCAACATC  -0.048
87. GCATAGAC  -0.0473
88. CGAAGTGA  -0.041
89. AAAGGGAT  -0.036
90. CCTGGAGA  -0.035
91. GATGCGAA  -0.0276
92. AATGGCTC  -0.0266
93. GATCAAGC  -0.0257
94. CAACAGAA  -0.0171
95. TGTCGAAA  -0.0144
96. GAGGTTAC  -0.0142
97. CAGTATAC  -0.0142
98. ATGTATCC  -0.0133
99. GCACAATA  -0.0105
100. CAAATACG  -0.00546
101. CGACTTAA  9e-05
102. GACTTGAA  0.00543
103. GCTACTCA  0.00757
104. ATGTACCA  0.00915
105. AAATCATG  0.0112
106. ATGAGCAA  0.0122
107. AGGTTGCA  0.013
108. CCCAGAAA  0.0141
109. ATTAGAAG  0.0148
110. AGTTGTGG  0.0188
111. AACATGCC  0.0234
112. ACGTTCGG  0.0284
113. AGAAAGCC  0.0302
114. ATTCACCA  0.0317
115. GCTTACAA  0.0356
116. GGCAATAA  0.0381
117. ATACAGGA  0.0398
118. AAACGAGC  0.0412
119. CAACTACA  0.051
120. TCTTGGCA  0.0543
121. AGAAACTG  0.0554
122. AAAGGTAC  0.0559
123. GGCGCCCA  0.0579
124. CGAACTGC  0.059
125. ATTCAGCA  0.0605
126. CTTGTACA  0.0693
127. CACTCGAG  0.0738
128. GATGGTTA  0.0741
129. AACGATCT  0.0753
130. CAATAGTG  0.0762
131. CTAAATGC  0.0828
132. ATTGTCTA  0.0903
133. ATTACCAA  0.0909
134. CTCAACTC  0.0921
135. CTAATTGA  0.0949
136. CCAACGGA  0.101
137. AACGAATG  0.105
138. CTTTTCAA  0.11
139. AGTTTAAT  0.113
140. GAAGAGTA  0.113
141. CAAAGAGC  0.115
142. CGTTCTGC  0.117
143. AGAAACCC  0.121
144. AGACCATA  0.122
145. GCTCCGCC  0.126
146. ATACTGAG  0.126
147. GGAAAGCA  0.128
148. ATAACAAC  0.129
149. ACAAATCT  0.148
150. CCGGTCAC  0.152
151. CCGTAAAG  0.155
152. AGAAACAT  0.159
153. AATCGATG  0.161
154. AGGAATAA  0.164
155. TAATGTAA  0.17
156. TACCCGCA  0.17
157. CTCGGGCA  0.17
158. CCAAAATA  0.177
159. ATCCGAGG  0.182
160. AGAAACTC  0.195
161. AAATAGAG  0.201
162. CATCCGTA  0.206
163. ATATTAAC  0.216
164. GAAAATAC  0.227
165. CAAGAAAA  0.242
166. CCGATTTA  0.249
167. CTCGGACA  0.306
168. CTCGGCAC  0.31
169. CGGGAACA  0.313
170. CGCCGAGC  0.344
171. ACCCGCGG  0.351
172. TAGCCGGA  0.401
